About 490 (0.14%) of roughly 340,000 compounds were called active. The shares of active, inactive and inconclusive entries below differ from those in the screen. No stated cut-off is given here; in the data, active means inhibition above about 12%; inconclusive means no clear call, values can overlap the other calls; inactive means below about 7.3%.
biological target: Kelch-like ECH-associated protein 1 (Homo sapiens) (UniProt Q14145); test: disruptors of Keap1 binding to Nrf2 – biochemical, fluorescence polarization, single point, primary screen (AID 504523); settings: Keap1 Kelch-Nrf2 peptide fluorescence polarization, 1536-well; at 9.4 µM; active compounds read high;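 further: human Keap1 Kelch domain with fluorescein labeled Nrf2 9mer peptide probe; 0% = neutral control wells and 100% = peptide positive control; higher means more block of Keap1 binding to Nrf2 peptide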

Chains of the proteins cited; added tags and fusions are not shown.
UniProt Q14145, whole entry, looked up: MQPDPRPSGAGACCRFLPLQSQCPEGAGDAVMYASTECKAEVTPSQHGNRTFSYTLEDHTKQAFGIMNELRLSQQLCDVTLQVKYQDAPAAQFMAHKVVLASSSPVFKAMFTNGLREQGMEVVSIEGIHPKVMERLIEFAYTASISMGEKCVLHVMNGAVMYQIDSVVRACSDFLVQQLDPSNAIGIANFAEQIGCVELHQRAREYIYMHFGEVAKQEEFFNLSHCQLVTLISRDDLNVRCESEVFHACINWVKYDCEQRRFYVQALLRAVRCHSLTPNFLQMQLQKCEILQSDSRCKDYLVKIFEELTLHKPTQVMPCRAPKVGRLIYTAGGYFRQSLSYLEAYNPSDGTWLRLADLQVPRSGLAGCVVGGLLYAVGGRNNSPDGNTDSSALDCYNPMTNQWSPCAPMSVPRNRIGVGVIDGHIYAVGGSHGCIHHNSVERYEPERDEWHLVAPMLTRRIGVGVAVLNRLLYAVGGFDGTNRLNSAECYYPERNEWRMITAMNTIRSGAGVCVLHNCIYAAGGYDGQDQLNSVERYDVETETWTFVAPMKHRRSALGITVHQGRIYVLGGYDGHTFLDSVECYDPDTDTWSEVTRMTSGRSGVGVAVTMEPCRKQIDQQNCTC

SMILES	inhibition
COc1cc(NS(=O)(=O)c2ccc(NC(=S)NC(=O)/C=C/c3ccc(F)cc3)cc2)ncn1	inactive: -2.9%
Cn1nc(C(F)(F)F)cc1-c1ccc(/C=C(\C#N)C(=O)c2ccccc2)s1	inconclusive: -10.7%
O=C(CS(=O)(=O)Cc1ccccc1)NCCc1ccc(F)cc1	inconclusive: 9.01%
CCCCCCCCCCCCCCCC[n+]1cccc(C(=O)N(CC)CC)c1	inconclusive: 11.4%
Cc1ccc(/C=C/C(=O)c2ccc(N3CCOCC3)cc2)s1	inconclusive: 11.4%
O=C1c2cccc3c([N+](=O)[O-])ccc(c23)C(=O)N1Cc1cccnc1	inconclusive: 12%
COc1ccc(S(=O)(=O)n2ccc(-c3ccc(OCCN(C)c4ccccn4)cc3)n2)cc1	inactive: -2.08%
O=C(CSc1nnc(C2CC2)n1-c1ccccc1)N1CCNC1=O	inconclusive: 9.96%
O=C(C1=NN(c2ccccc2)C2C(=O)N(c3cccc(Cl)c3)C(=O)C12)c1ccccc1 (centres undefined)	inconclusive: 6.73%
CCn1c(=N)c(S(=O)(=O)c2ccc(F)cc2)cc2c(=O)n3ccccc3nc21	inconclusive: 4.38%
Cc1ccc(N2CC(C(=O)Nc3ccccc3C(=O)NC3CCCCC3)CC2=O)cc1C (centres undefined)	inactive: -7.6%
O=C1/C(=C/C=C/c2ccco2)SC(=S)N1NS(=O)(=O)c1ccccc1	active: 27.8%
Cc1cc(C)c(C)c(S(=O)(=O)Nc2cccc(S(=O)(=O)Nc3ccccc3C(=O)O)c2)c1C	active: 13.9%
O=C1O/C(=C/c2ccccc2)N=C1c1ccccc1	inconclusive: 9.44%
COc1ccc(/C=N/c2c(-c3ccco3)nc3ccccn23)cc1OC	inconclusive: 10.5%
CCn1c(Cc2ccc(OC)cc2)nnc1SCC(=O)NC1CCCCC1	inconclusive: 10.3%
COC(=O)c1onc(-c2c(C)cc(C)cc2C)c1C(=O)OC	inconclusive: 10.1%
Cc1ccc(Nc2nnc(SCC(=O)Nc3cccc(S(=O)(=O)N4CCCCC4)c3)s2)cc1	inconclusive: 11.4%
CCOc1ccccc1C(=O)OCC(=O)Nc1cccc(S(=O)(=O)NC2=NCCCCC2)c1	inconclusive: 7.13%
Cn1c(SSc2ccc(-c3cccnc3)n2C)ccc1-c1cccnc1	inactive: -3.64%
CCCNC(=O)Cn1c(=O)cnc2ccccc21	inconclusive: 9.48%
CC1(C)CC2(CCO1)OC(=O)CC2C(=O)Nc1c(Cl)cccc1Cl (centres undefined)	inactive: -4.41%
O=C(Nc1ccc(C2=CN(Cc3ccccc3)CCC2=O)cc1)OCc1ccccc1	inconclusive: 7.52%
Cc1ccc(C(=O)NC2CCCc3ccccc32)cc1[N+](=O)[O-] (centres undefined)	inconclusive: 8.34%
COc1cccc(/C=N/n2cnc3ccccc32)c1OC	inconclusive: 8.43%
CC1(C)CC(=O)C2=C(C1)OC(N)=C(C#N)C2c1ccccc1[N+](=O)[O-] (centres undefined)	active: 24.8%
Cc1cc(C)cc(NC(=O)CCCN2C(=O)C(c3ccccc3)Oc3cccnc32)c1 (centres undefined)	inactive: -2.88%

Ordered by length of the SMILES (smallest number first): part of the list above
SMILES	inhibition
COc1cccc(/C=N/n2cnc3ccccc32)c1OC	inconclusive: 8.43%
O=C(CS(=O)(=O)Cc1ccccc1)NCCc1ccc(F)cc1	inconclusive: 9.01%
O=C(CSc1nnc(C2CC2)n1-c1ccccc1)N1CCNC1=O	inconclusive: 9.96%
Cn1c(SSc2ccc(-c3cccnc3)n2C)ccc1-c1cccnc1	inactive: -3.64%
COc1ccc(/C=N/c2c(-c3ccco3)nc3ccccn23)cc1OC	inconclusive: 10.5%
Cc1ccc(C(=O)NC2CCCc3ccccc32)cc1[N+](=O)[O-] (centres undefined)	inconclusive: 8.34%
CC1(C)CC2(CCO1)OC(=O)CC2C(=O)Nc1c(Cl)cccc1Cl (centres undefined)	inactive: -4.41%
O=C(Nc1ccc(C2=CN(Cc3ccccc3)CCC2=O)cc1)OCc1ccccc1	inconclusive: 7.52%
O=C1c2cccc3c([N+](=O)[O-])ccc(c23)C(=O)N1Cc1cccnc1	inconclusive: 12%
Cc1ccc(N2CC(C(=O)Nc3ccccc3C(=O)NC3CCCCC3)CC2=O)cc1C (centres undefined)	inactive: -7.6%
CCn1c(=N)c(S(=O)(=O)c2ccc(F)cc2)cc2c(=O)n3ccccc3nc21	inconclusive: 4.38%
CCOc1ccccc1C(=O)OCC(=O)Nc1cccc(S(=O)(=O)NC2=NCCCCC2)c1	inconclusive: 7.13%
COc1ccc(S(=O)(=O)n2ccc(-c3ccc(OCCN(C)c4ccccn4)cc3)n2)cc1	inactive: -2.08%
O=C(C1=NN(c2ccccc2)C2C(=O)N(c3cccc(Cl)c3)C(=O)C12)c1ccccc1 (centres undefined)	inconclusive: 6.73%
COc1cc(NS(=O)(=O)c2ccc(NC(=S)NC(=O)/C=C/c3ccc(F)cc3)cc2)ncn1	inactive: -2.9%
Cc1cc(C)c(C)c(S(=O)(=O)Nc2cccc(S(=O)(=O)Nc3ccccc3C(=O)O)c2)c1C	active: 13.9%

The list goes on.

SMILES	inhibition
Cc1cc(C)c(NC(=O)CS)c(Cl)c1	inactive: -0.476%
Cc1cc(C)c(NC(=O)CNC(=O)c2ccc3ncsc3c2)c(C)c1	inactive: -2.29%
O=C(Nc1cccc(C(=O)N2CCOCC2)c1)C1CCCC1	inactive: -5.16%
CCN(CC)c1ccc2cc(S(=O)(=O)c3ccc(C)cc3)c(=O)oc2c1	inconclusive: 3.53%
CC(C)OC(=O)C(C(=O)C(F)(F)F)c1cc(NS(=O)(=O)c2ccc3ccccc3c2)c2ccccc2c1O (centres undefined)	inconclusive: 10.6%
C/C(=N\NC(=O)c1ccc(Cn2cc(Br)cn2)o1)c1cccc(NC(=O)C(C)C)c1	inconclusive: 8.2%
O=[N+]([O-])c1cccc(Cn2cnc3c(=S)nc[nH]c32)c1	inactive: -2.13%
N#Cc1ccc(C(=O)OCC(=O)N2CCN(C(=O)c3ccco3)CC2)cc1	inactive: -3.77%
O=C1C(=Cc2ccc(Br)o2)C(=O)c2ccccc21	inconclusive: 11.6%
Cc1ccc(OCC(=O)NNC(=O)CSc2ncc(C#N)c(N)n2)cc1	inconclusive: 7.1%
COc1ccccc1NC(=S)NNC(=O)c1ccc(Cl)cc1Cl	inactive: -1.67%
C=CCOc1cccc(C2C(C(=O)c3ccc(C)o3)=C(O)C(=O)N2c2nccs2)c1 (centres undefined)	inconclusive: 11%
Cc1cccc(C)c1NC(=O)COC(=O)c1c2c(nc3ccccc13)/C(=C\c1ccc3c(c1)OCO3)CCC2	inconclusive: 7.83%
COc1ccccc1NC(=O)Cn1c2ccccc2c2nc3n(c(=O)c21)CCS3	inconclusive: 8.32%
COc1ccc(NC(=O)CNC(c2ccccc2)c2ccccc2)cc1Cl	inconclusive: 8.41%
CCOC(=O)Cc1csc(NC(=O)c2sc3nc4cc(C)ccc4cc3c2N)n1	inconclusive: 11.2%
CN1CCC(N(C)C(=O)CCc2nc3ccccc3n2-c2ccccc2)CC1	inactive: -2.56%
CC(=O)Nc1ccc(NC(=O)C(C)OC(=O)c2cc(S(=O)(=O)N3CCOCC3)ccc2Cl)cc1 (centres undefined)	inactive: -8.02%
CS(=O)(=O)N(CC(=O)NCCSC1CCCCC1)c1ccc2c(c1)OCO2	inconclusive: 7.66%
O=C(CCN1C(=O)CSc2ccccc21)Nc1cccc(C(F)(F)F)c1	inconclusive: 11.1%
O=C(Nc1ccccn1)C1CCN(S(=O)(=O)c2ccc3c(c2)OCCO3)CC1	active: 24.3%
CCCCn1c(O)c(/C=C2\C=Nc3ccccc32)c(=O)[nH]c1=O	inconclusive: 7.68%
CC(OC(=O)c1ccc([N+](=O)[O-])o1)C(=O)NC1CCCCC1C (centres undefined)	active: 20.8%
O=C(O)CCC(=O)OCCN(Cc1ccc(Oc2ccc([N+](=O)[O-])cc2)cc1)C(=O)C(Cl)Cl	inactive: -4.91%
O=C(NCC1([N+](=O)[O-])CN(C(=O)c2ccccc2)CN(C(=O)c2ccccc2)C1)c1ccccc1	inconclusive: 9.05%
CCOC(=O)Cn1nnnc1C(CC)N(Cc1ccccc1)Cc1cc2cc(C)ccc2[nH]c1=O (centres undefined)	inconclusive: 8.12%
CCOCc1cc(=O)[nH]c(SC)n1	inactive: -5.54%

From PubChem BioAssay AID504523 (Broad Institute, 2011)
